Measured values published in US20230024384A1, “C[…] COMPOUND FOR TREATING FRAGILE X SYNDROME OR RELATED DEVELOPMENTAL DISORDERS” (NEUROVENTI, priority 2020, published 2023).

Columns and labels:
[1] = test system: animal model in which MK-801 was administered to wild-type mice; details: wild-type mice given MK-801, FIG. 7
[2] = test system: Cntnap2-deficient animal model (autism); test: three-chamber test in Cntnap2-deficient autism animal model; assay type: in vivo, mouse; details: Cntnap2 KO mice, lisuride intraperitoneally 50 ug/kg, single or 5 days treatment, FIG. 4
Experimental: Purchased a 5-week-old Cntnap2 knockout mouse (Jackson Laboratory, USA) weighing about 22 g to 24 g and acclimatize to an environment with a temperature of 23±2° C., humidity of 55±10%, and a light-dark cycle of 12 hours while allowing them to freely consume water and feed. After breeding (Konkuk University Laboratory Animal Center), they were used for experiments. Wild-type (WT) mice showing normal expression of Cntnap2 and KO mice lacking Cntnap2 expression were used. The dosing and testing were performed according to the age of the week. Dosing was performed at the same time. Behavioral experiments were conducted 30 minutes after administration. It was divided into groups administered with 1 mg/kg each of lisuride (Sigma Aldrich) or 0.25 (v/v) % DMSO in Cntnap2 expression-deficient knock-out mice or wild-type mice. For the drug administration group, lisuride was dissolved in 0.25% DMSO and then administered intraperitoneally at a dose of 50 ug/kg. Meanwhile, 0.25 (v/v) % DMSO was intraperitoneally administered to the control group.
To confirm the therapeutic effect of Iisuride on the lack of sociability, one of the phenotypes of developmental disorders, a three-chamber test was performed using an animal model lacking Cntnap2. Experimental results were expressed as a social interaction index by measuring the time the test mouse approaches or sniffs each stimulus mouse. […]

CCN(CC)C(=O)N[C@H]1C=C2c3cccc4[nH]cc(c34)C[C@H]2N(C)C1 [lisuride, 1,1-Diethyl-3-(7-methyl-4,6,6a,7,8,9-hexahydro-indolo [4,3-fg]quinolin-9-yl)-urea] was tested, and the “hyperactivity in open-field test” value [1] was “significantly reduced” and the “sociability: time spent and sniffing with novel versus familiar mouse (social interaction index)” value [2] was “spent more time and sniffed more with the novel mouse than the familiar mouse”.
